Source: patent publication US20220040196A1 (priority 2020, published 2022)
Some results were stated once for a whole list of compounds, not compound by compound.

Assay: Bulk density
Format: physicochemical

## CNC1=Nc2ccc(Cl)cc2C(c2ccccc2)=[N+]([O-])C1.Cl [Chlordiazepoxide hydrochloride, 7-chloro-2-methylamino-5-phenyl-3H-1,4-benzodiazepine 4-oxide hydrochloride]
  bulk density: less than 0.70 g/cc
